Our source for the isolated mass and isolated yield values is patent publication US12016918B2 (UNIVERSITEIT LEIDEN, priority 2017, dated 2024).

Data set [1] in a line: general procedure: Fmoc solid-phase peptide synthesis; Tentagel S RAM; HCTU; PyBOP/DiPEA for building block 14. As to conditions: whole synthesis, scale 0.05 mmol.
Data set [2] in a line: general procedure: Fmoc solid-phase peptide synthesis; Tentagel S RAM resin (loading 0.23 mmol/g); preloaded leucine resin; HCTU; PyBOP/DiPEA for building block 14. As to conditions: whole synthesis.

In data set [1], “AcNH-Cys(EtOC(O)C15H31)-SerLysLysLysLys-C(O)NH2” came in with an isolated mass of 5.8 mg and an isolated yield of 7.7%.

Substance “NH2C(O)NH-Cys(EtOC(O)C15H31)—SerLysLysLysLys-C(O)NH2” had an isolated mass in data set [2] of 3.0 mg. The substance also gave an isolated yield in data set [2] (scale of the general procedure 0.05 mmol) of 4%.
